Laboratory results: publication PMC10747034 (Tropical Medicine and Infectious Disease, 2023)

Assay: Cytotoxicity assay (MTS, 7 days)
Assay type: cell-based
Conditions: human, concentrations up to 10 µM, two independent experiments, read-out: Cytotoxicity against NHDF (7 Days) CC50
Method: For that, 96-well tissue plates containing NHDF cells were treated with different concentrations of compounds up to 10 µM for seven days. Control cells were incubated with 0.5% DMSO. At the end of the treatment, cell viability was then analyzed through the colorimetric method of MTS (Promega, Madison, WI, USA). […] Data were analyzed using GraphPad Prim 8.0 software. IC50 and CC50 calculations were performed by fitting the values of proliferation/viability in percentage to a non-linear curve followed by dose–response inhibition analysis through log(inhibitor) vs. normalized response.

CCC[C@@H]1C[C@@H](C(=O)N[C@@H]([C@H]2O[C@H](SC)[C@H](O)[C@@H](O)[C@H]2O)[C@H](C)Cl)N(C)C1 [Clindamycin]
CC50 at 7 days: 8.84 µM
